# Test results: PMC7909581
# The chains behind the UniProt entries cited, without tags or fusion partners. Where a name states a change or a piece, a line headed by the entry shows the natural chain unless it says otherwise. A line that says so, or that is headed by a name, gives the form on record, which may keep a tag or linker. Residues count along the entry.
# UniProt Q5S007: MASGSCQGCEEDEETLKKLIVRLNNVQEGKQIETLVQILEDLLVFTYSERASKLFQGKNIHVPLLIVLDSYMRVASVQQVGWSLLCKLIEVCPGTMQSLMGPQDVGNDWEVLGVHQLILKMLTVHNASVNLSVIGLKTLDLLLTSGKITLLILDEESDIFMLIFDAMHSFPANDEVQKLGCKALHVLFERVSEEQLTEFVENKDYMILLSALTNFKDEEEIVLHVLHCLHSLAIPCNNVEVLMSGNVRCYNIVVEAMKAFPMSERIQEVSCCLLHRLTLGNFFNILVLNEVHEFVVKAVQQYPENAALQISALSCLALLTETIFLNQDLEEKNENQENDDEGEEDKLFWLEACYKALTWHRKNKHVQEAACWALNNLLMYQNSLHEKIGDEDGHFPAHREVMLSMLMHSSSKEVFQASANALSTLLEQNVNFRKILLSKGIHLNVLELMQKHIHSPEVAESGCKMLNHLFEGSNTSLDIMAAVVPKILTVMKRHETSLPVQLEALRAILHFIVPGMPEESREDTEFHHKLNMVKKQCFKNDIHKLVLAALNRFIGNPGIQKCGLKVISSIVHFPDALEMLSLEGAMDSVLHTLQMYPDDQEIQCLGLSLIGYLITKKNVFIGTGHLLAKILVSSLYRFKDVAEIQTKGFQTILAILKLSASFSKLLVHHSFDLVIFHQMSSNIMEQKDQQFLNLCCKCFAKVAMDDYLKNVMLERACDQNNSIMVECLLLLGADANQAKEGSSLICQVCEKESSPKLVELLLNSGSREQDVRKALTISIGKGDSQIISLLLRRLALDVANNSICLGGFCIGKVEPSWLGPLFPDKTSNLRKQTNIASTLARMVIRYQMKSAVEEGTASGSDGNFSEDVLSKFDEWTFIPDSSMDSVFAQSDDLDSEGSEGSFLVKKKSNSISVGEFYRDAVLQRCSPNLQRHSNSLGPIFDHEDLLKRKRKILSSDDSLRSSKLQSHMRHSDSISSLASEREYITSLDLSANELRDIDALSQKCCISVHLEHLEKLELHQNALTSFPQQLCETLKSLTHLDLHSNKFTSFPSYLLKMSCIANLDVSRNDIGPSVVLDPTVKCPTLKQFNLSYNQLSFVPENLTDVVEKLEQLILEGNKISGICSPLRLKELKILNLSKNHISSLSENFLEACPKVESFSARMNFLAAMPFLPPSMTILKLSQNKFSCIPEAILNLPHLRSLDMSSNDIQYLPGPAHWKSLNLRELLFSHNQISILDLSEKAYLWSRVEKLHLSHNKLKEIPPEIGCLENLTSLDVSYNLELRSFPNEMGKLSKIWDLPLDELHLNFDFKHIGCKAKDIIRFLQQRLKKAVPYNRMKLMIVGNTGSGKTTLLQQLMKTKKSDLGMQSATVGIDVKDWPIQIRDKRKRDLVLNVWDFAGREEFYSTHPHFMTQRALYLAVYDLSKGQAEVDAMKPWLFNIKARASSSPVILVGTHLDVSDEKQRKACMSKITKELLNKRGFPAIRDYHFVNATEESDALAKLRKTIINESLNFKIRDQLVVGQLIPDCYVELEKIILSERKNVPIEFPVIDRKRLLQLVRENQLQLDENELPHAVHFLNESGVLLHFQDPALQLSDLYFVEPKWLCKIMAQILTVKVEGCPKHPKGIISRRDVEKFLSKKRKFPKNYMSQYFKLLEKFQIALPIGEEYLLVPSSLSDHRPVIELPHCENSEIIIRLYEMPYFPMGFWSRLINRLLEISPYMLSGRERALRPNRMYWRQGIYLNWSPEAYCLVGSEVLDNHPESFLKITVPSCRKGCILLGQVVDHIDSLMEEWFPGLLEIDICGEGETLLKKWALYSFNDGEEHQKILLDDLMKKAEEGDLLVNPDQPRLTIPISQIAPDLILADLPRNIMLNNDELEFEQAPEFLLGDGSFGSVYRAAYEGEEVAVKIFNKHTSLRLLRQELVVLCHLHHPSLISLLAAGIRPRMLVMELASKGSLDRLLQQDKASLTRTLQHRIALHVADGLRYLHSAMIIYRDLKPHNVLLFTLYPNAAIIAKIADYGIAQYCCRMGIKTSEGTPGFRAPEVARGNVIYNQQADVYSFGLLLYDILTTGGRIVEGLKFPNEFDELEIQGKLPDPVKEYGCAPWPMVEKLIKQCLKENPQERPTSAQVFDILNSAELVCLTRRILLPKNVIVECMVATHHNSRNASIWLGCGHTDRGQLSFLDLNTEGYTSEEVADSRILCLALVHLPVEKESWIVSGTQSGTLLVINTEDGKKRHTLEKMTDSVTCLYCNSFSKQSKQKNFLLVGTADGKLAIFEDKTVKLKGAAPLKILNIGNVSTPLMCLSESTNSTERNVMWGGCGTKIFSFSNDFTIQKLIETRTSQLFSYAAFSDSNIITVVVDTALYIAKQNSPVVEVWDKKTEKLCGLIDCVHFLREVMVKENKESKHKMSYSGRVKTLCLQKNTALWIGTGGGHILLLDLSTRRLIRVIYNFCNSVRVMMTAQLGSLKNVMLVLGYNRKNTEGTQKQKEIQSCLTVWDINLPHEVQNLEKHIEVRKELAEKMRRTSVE
# GST-Kinase (LRRK2 kinase domain fused to GST): residues 1879-2138 of Q5S007
# UniProt O35382: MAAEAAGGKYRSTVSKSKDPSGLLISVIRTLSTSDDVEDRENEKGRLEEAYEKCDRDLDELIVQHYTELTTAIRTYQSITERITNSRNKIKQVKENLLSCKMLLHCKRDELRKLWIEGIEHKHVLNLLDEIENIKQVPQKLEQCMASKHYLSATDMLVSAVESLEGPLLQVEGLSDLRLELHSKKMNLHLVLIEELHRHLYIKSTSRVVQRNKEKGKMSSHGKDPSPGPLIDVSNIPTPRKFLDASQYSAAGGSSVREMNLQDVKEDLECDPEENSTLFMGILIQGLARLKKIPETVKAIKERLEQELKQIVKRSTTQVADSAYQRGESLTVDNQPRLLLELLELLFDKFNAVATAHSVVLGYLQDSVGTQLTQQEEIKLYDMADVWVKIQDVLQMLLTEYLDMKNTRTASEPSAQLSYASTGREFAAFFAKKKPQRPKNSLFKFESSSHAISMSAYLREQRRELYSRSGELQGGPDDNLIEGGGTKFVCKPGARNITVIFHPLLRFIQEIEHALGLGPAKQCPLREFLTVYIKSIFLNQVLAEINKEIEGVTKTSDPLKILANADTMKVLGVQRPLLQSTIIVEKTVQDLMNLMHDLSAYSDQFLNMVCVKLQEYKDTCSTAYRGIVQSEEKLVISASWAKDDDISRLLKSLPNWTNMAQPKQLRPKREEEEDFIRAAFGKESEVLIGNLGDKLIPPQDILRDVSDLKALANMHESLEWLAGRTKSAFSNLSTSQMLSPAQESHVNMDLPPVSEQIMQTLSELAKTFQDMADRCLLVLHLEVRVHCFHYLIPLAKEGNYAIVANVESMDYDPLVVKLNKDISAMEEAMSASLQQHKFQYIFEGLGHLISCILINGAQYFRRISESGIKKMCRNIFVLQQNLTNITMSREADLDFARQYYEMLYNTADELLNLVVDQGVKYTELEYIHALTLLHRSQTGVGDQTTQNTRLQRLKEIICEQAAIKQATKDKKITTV
# UniProt Q96A65: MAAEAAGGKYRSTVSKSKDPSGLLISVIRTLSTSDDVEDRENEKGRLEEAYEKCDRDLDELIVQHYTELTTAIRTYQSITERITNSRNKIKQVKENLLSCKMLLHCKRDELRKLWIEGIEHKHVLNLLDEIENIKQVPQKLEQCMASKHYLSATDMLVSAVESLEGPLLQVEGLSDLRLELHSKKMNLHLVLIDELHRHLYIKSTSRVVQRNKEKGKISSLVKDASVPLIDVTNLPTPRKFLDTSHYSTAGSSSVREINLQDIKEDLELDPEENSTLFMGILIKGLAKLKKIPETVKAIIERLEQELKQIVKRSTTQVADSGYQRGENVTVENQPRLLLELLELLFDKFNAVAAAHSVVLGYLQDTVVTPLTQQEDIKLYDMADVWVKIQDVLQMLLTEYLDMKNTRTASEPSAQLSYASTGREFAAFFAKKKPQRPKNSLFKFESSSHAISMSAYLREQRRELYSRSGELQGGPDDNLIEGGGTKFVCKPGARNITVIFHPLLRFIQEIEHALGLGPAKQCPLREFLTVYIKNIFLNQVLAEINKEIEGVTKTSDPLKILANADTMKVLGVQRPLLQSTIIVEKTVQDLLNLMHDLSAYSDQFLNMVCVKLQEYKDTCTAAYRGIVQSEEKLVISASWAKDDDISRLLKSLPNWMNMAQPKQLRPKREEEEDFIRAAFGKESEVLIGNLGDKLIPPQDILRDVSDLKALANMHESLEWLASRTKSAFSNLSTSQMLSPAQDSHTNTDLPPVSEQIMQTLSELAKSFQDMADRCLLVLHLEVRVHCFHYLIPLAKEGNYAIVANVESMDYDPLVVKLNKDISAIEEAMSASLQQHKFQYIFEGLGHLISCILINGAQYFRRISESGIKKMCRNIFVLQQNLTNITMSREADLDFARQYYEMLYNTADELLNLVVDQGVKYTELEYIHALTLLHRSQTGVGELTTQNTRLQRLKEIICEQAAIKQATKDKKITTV
# UniProt Q62824: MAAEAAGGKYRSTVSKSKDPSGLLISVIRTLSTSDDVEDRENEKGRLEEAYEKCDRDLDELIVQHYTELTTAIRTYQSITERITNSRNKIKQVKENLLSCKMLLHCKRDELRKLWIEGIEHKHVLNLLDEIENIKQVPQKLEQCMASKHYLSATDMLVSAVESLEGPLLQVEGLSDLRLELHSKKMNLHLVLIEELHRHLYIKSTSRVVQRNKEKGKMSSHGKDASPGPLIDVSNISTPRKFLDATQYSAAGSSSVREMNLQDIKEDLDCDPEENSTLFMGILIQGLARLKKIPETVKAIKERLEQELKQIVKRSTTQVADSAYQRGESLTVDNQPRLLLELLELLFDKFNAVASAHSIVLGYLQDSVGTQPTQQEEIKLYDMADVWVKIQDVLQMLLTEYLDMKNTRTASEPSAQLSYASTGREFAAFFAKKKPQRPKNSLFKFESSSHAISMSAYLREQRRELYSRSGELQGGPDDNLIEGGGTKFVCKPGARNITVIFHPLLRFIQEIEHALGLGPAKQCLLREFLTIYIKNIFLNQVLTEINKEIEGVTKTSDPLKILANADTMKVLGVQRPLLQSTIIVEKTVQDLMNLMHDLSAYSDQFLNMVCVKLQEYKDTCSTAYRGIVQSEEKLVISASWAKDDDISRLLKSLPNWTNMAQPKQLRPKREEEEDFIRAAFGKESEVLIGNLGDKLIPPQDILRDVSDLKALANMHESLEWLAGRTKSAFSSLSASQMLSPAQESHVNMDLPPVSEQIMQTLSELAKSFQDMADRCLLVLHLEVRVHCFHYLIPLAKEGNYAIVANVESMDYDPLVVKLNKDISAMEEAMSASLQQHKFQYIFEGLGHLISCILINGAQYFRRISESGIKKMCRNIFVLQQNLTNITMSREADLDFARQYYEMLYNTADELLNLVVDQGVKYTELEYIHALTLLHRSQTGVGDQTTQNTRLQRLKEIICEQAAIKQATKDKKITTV
# UniProt O60645: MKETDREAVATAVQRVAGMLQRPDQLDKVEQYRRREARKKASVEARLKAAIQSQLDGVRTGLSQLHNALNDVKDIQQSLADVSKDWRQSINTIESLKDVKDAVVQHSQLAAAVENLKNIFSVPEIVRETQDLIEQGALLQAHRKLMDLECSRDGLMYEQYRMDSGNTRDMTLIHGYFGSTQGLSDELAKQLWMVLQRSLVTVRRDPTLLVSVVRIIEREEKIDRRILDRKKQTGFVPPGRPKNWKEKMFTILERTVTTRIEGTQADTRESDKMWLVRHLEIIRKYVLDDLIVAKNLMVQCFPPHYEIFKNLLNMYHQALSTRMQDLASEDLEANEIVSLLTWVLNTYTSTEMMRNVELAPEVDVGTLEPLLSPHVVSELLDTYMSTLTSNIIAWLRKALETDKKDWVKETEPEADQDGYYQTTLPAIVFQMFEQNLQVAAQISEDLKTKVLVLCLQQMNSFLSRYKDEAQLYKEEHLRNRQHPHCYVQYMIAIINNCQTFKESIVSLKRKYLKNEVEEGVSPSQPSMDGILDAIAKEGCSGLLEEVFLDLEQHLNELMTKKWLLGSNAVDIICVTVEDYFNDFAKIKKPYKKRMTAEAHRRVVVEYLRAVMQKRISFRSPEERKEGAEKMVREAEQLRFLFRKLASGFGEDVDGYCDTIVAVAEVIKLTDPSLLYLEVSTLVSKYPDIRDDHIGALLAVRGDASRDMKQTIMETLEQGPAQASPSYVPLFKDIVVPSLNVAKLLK
# No constants are given. Whether binding was seen depends on the method and setting. Binding seen in cells or lysates may run through a third protein. Some entries that bind do so weakly or less than the wild type.
# Columns and labels:
# Myc-LRRK2 WT [1] = target: Myc-LRRK2 WT (UniProt Q5S007); assay: co-IP; HEK293 co-transfected 48 h with Flag-ratSec8 and Myc-LRRK2 WT; NP40 lysis buffer (150 mM NaCl, 1% NP40, 20 mM Tris-HCl pH 7.5); IP with anti-Myc, blot with anti-Flag
# [2] = target: Sec8 (endogenous, mouse brain) (mouse (endogenous in mouse brain)) (UniProt O35382); assay: co-IP; mouse brain protein extracts (striatal tissue) of WT or LRRK2 knock-out mice; IP with anti-Sec8 or anti-IgG, blot with anti-LRRK2; endogenous proteins
# Flag-hSec8 WT (human) [3] = target: Flag-hSec8 WT (human) (UniProt Q96A65); assay: co-IP; HEK293 co-transfected 48 h with Flag-Sec8 (WT or deletion mutants) and Myc-LRRK2 (WT or deletion mutants); NP40 lysis buffer; IP with anti-Flag, blot with anti-Myc
# Flag-hSec8 WT (human) [4] = target: Flag-hSec8 WT (human) (UniProt Q96A65); assay: co-IP; HEK293 transfected 48 h with Flag-Sec8 alone or with Myc-LRRK2 (WT, G2019S, ΔKin or ΔWD40), with or without LRRK2 kinase inhibitor CZC-25146 (1 μM, 3 h before lysis); IP with anti-Flag, blot with anti-Exo70 or anti-Sec6 (endogenous proteins)
# Myc-LRRK2 WT [5] = target: Myc-LRRK2 WT (UniProt Q5S007); assay: cross-linking + co-IP; HEK293 transfected 48 h with Myc-LRRK2 WT; cells treated with 2 mM DSS for 30 min at room temperature before lysis in NP40 buffer; IP with anti-Myc, blot with anti-Sec8 (endogenous Sec8)
# [6] = target: GST-Kinase (LRRK2 kinase domain fused to GST) (UniProt Q5S007); assay: pull-down; 500 ng GST-LRRK2 domain on glutathione-Sepharose incubated with 5 mg mouse brain protein extract at 4 °C overnight (50 mM Tris-HCl pH 8.0, 150 mM NaCl, 1% NP-40); five washes; SDS-PAGE, colloidal Coomassie stain, band identified by MALDI mass spectrometry; only the target purified
substance,measurement,setting,value
Flag-ratSec8 (from UniProt Q62824 1-975),binding,Myc-LRRK2 WT [1],binds
"LRRK2 (endogenous, mouse brain) (from UniProt Q5S006 1-2527)",binding,[2],binds
Myc-LRRK2 WT (from UniProt Q5S007 1-2527),binding,Flag-hSec8 WT (human) [3],binds
"Sec6 (endogenous, HEK293) (from UniProt O60645 1-745)",binding,Flag-hSec8 WT (human) [4],binds weakly
"Sec8 (endogenous, HEK293) (from UniProt Q96A65 1-974)",binding,Myc-LRRK2 WT [5],binds
"Sec8 (endogenous, mouse brain) (from UniProt O35382 1-975)",binding,[6],binds
